HELM strings list residues between dots; [ac] is acetyl, [am] amide, other brackets name non-standard units. Non-standard residues stand in square brackets, D forms with d. *: point of attachment. Daunorubicin(13-NOCH2CO) = COc1cccc2c1C(=O)c1c(O)c3c(c(O)c1C2=O)C[C@@](O)(C(C)=NOCC(=O)*)C[C@@H]3O[C@H]1C[C@H](N)[C@H](O)[C@H](C)O1; pGlu = O=C1CC[C@@H](C(=O)O)N1; Butyryl = CCCC(=O)*
Assay: general procedure: Fmoc solid-phase peptide synthesis; Rink-Amide MBHA resin (0.73 mmol/g coupling capacity); DIC/HOBt
Details: whole synthesis; for final HPLC purity: 220 nm; for isolated yield: over all synthetic and purification steps

Substance	final HPLC purity [%]	isolated yield [%]
PEPTIDE1{[Glp].H.W.[Lys(Bu)].H.[dD].W.K.P.G.[am]}|PEPTIDE2{[DauAoa]}$PEPTIDE1,PEPTIDE2,8:R3-1:R2$$$V2.0	>98	9
[pGlu]HWK(Butyryl)H[dW]WK(Daunorubicin(13-NOCH2CO))PG-NH2 (SMILES CCCC(=O)NCCCC[C@H](NC(=O)[C@H](Cc1c[nH]c2ccccc12)NC(=O)[C@H](Cc1c[nH]cn1)NC(=O)[C@@H]1CCC(=O)N1)C(=O)N[C@@H](Cc1c[nH]cn1)C(=O)N[C@H](Cc1c[nH]c2ccccc12)C(=O)N[C@@H](Cc1c[nH]c2ccccc12)C(=O)N[C@@H](CCCCNC(=O)CON=C(C)[C@]1(O)Cc2c(O)c3c(c(O)c2[C@@H](O[C@H]2C[C@H](N)[C@H](O)[C@H](C)O2)C1)C(=O)c1c(OC)cccc1C3=O)C(=O)N1CCC[C@H]1C(=O)NCC(N)=O)	>97	6
[pGlu]HWSH[dW]WK(Daunorubicin(13-NOCH2CO))PG-NH2 (SMILES COc1cccc2c1C(=O)c1c(O)c3c(c(O)c1C2=O)C[C@@](O)(C(C)=NOCC(=O)NCCCC[C@H](NC(=O)[C@H](Cc1c[nH]c2ccccc12)NC(=O)[C@@H](Cc1c[nH]c2ccccc12)NC(=O)[C@H](Cc1c[nH]cn1)NC(=O)[C@H](CO)NC(=O)[C@H](Cc1c[nH]c2ccccc12)NC(=O)[C@H](Cc1c[nH]cn1)NC(=O)[C@@H]1CCC(=O)N1)C(=O)N1CCC[C@H]1C(=O)NCC(N)=O)C[C@@H]3O[C@H]1C[C@H](N)[C@H](O)[C@H](C)O1)	>95	7
PEPTIDE1{[Glp].H.W.[Lys(Bu)].H.D.W.K.P.G.[am]}|PEPTIDE2{[DauAoa]}$PEPTIDE1,PEPTIDE2,8:R3-1:R2$$$V2.0	>97	27
[pGlu]HWK(Butyryl)H[dE]WK(Daunorubicin(13-NOCH2CO))PG-NH2 (SMILES CCCC(=O)NCCCC[C@H](NC(=O)[C@H](Cc1c[nH]c2ccccc12)NC(=O)[C@H](Cc1c[nH]cn1)NC(=O)[C@@H]1CCC(=O)N1)C(=O)N[C@@H](Cc1c[nH]cn1)C(=O)N[C@H](CCC(=O)O)C(=O)N[C@@H](Cc1c[nH]c2ccccc12)C(=O)N[C@@H](CCCCNC(=O)CON=C(C)[C@]1(O)Cc2c(O)c3c(c(O)c2[C@@H](O[C@H]2C[C@H](N)[C@H](O)[C@H](C)O2)C1)C(=O)c1c(OC)cccc1C3=O)C(=O)N1CCC[C@H]1C(=O)NCC(N)=O)	>96	7
